Several values for one entry are separate records, joined by “and”; a condition that tells them apart may be missing. Equal values may be shown once. The campaign covered roughly 320,000 compounds. About 22,000 (6.9%) were called active. The inconclusive results got no clear call from the source; some entries with a clear call stand among them for comparison. The call rests on the fitted dose curve; in most records, active means well fitted inhibition curve with a large enough effect; inconclusive means small, poorly fitted or top-dose-only effect, or another doubt; inactive means no such curve, though single readings can be large or run the other way. A potency beside an inconclusive call is a rough fit, not a confirmed value.
Experiment: Primary qHTS for delayed death inhibitors of the malarial parasite plastid, 96 hour incubation
Settings: P. falciparum luciferase reporter growth; series mostly up to 28.7 µM; activity change, negative = inhibition: at the top concentration
Outline: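 Erythrocytes infected with luciferase-expressing P. falciparum were dispensed at 2% hematocrit and 0.05% parasitemia (final), then incubated with compounds 96 hours at 37 C in 5% CO2. Luminescence after detection reagent addition reported growth.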
On the % scale 0 is the no-effect control and ±100 the full control effect; potency means the concentration at half of the fitted maximal effect.

Q: For `CS(=O)(=O)N1CCC(Oc2ccccc2C(=O)NC2CCOC2)CC1` (centres undefined), which “activity change, negative = inhibition” value is on record?
A: inactive: 0%

Q: For `CN(C)CCCNC(=O)/C(=C/c1ccc(-c2ccc([N+](=O)[O-])cc2)o1)NC(=O)c1ccccc1`, which Potency is on record?
A: inconclusive: 11.7 µM [inhibitor, single point]

Q: Which Potency does the source give for `CCCn1c(N)c(C(=O)COC(=O)c2cccc(S(=O)(=O)N3CCOCC3)c2)c(=O)[nH]c1=O` here?
A: inconclusive: 2.62 µM [inhibitor, single point]

Q: For `O=C(CNC(=O)c1ccco1)N=Nc1c(O)[nH]c2ccc([N+](=O)[O-])cc12`, which “activity change, negative = inhibition” value is on record?
A: inactive: 14.8%

Q: With `COC(=O)c1cn(NC(=O)Cc2ccccc2OC)c(=O)c2ccccc12` as the compound, how does the Potency read?
A: inconclusive: 18.5 µM [inhibitor, single point]

Q: For `COc1ccc(-c2csc(NC(=O)Cc3cc(OC)c(OC)c(OC)c3)n2)cc1OC`, which Potency is on record?
A: active: 11.7 µM

Q: Which Potency does the source give for `COc1ccc(C2=NOC3(CC(=O)N(c4ccc(F)cc4)C3=O)C2)cc1` (centres undefined) here?
A: inconclusive: 18.5 µM [inhibitor, single point]

Q: Which Potency does the source give for `C=CCn1c(COc2ccccc2)nnc1SCc1ccc(C#N)cc1` here?
A: active: 0.928 µM

Q: For `CN1CCN(c2nc3c(c(=O)[nH]c(=O)n3C)n2CC(N)=O)CC1`, which Potency is on record?
A: active: 13.1 µM

Q: For `N#Cc1ccc(C(=O)N(Cc2ccco2)c2c(N)n(Cc3ccccc3)c(=O)[nH]c2=O)cc1`, which Potency is on record?
A: inconclusive: 10.4 µM [inhibitor, partial curve, poor fit]

Q: With `COc1cc(/C=C(/C)[N+](=O)[O-])ccc1OCc1ccccc1Cl` as the compound, how does the Potency read?
A: inconclusive: 18.5 µM [inhibitor, single point]

Q: Which Potency does the source give for `Cc1cccn2c(=O)c(/C=C(\C#N)C(=O)NCc3ccco3)c(N3CCOCC3)nc12` here?
A: inconclusive: 7.38 µM [inhibitor, partial curve]

Q: For `CCOc1ccccc1CNC(=O)CCNC(=O)Cn1ccc2ccccc2c1=O`, which “activity change, negative = inhibition” value is on record?
A: inactive: 4.18%

Q: Which Potency does the source give for `N#C/C(=C\c1c(N2CCN(c3ccccc3)CC2)nc2ccccn2c1=O)S(=O)(=O)c1ccccc1` here?
A: inconclusive: 1.65 µM [inhibitor, full curve, poor fit]

Q: With `Cc1ccc(S(=O)(=O)Oc2ccc(C)cc2/C=N/N=C2\NC(=O)C(C)S2)cc1` (centres undefined) as the compound, how does the Potency read?
A: inconclusive: 13.1 µM [inhibitor, partial curve]

Q: For `COc1nc(-c2ccccc2)cc(-c2ccc(OC)c(OC)c2)n1`, which “activity change, negative = inhibition” value is on record?
A: inactive: 28%

Q: Which “activity change, negative = inhibition” value does the source give for `CCOc1ccc(-n2c(C)nc(O)c2N=Nc2ccccc2)cc1` here?
A: inactive: -12.9%

Q: Which “activity change, negative = inhibition” value does the source give for `CCCCN(CC)CCNC(=O)CCC(=O)Nc1ccc2nc(N3CCN(C)CC3)cc(C)c2c1` here?
A: inactive: -12.6%

Q: Which Potency does the source give for `Cc1ccccc1OCC(=O)Nc1ccccc1-c1ccccc1` here?
A: inconclusive: 11.7 µM [inhibitor, single point]

Q: Which “activity change, negative = inhibition” value does the source give for `CCn1ncc(/C=N\NC(=O)COc2ccccc2)c1C` here?
A: inactive: 8.71%

Q: With `O=S(NCc1ccco1)C12CC3CC(CC(C3)C1)C2` (centres undefined) as the compound, how does the “activity change, negative = inhibition” value read?
A: inactive: -12.8%

Q: With `CC(C)(C)Nc1nc(SCC(=O)Nc2ccccc2Cl)nc(N2CCOCC2)n1` as the compound, how does the Potency read?
A: inconclusive: 4.65 µM [inhibitor, partial curve, poor fit]

Q: For `CC(=O)Nc1ncc(Cc2cccc(Cl)c2Cl)s1`, which “activity change, negative = inhibition” value is on record?
A: inactive: 14.7%

Q: Which Potency does the source give for `Cc1ccc(-c2csc3ncnc(N4CCN(c5ccccc5O)CC4)c23)cc1` here?
A: active: 10.4 µM

Q: For `COc1ccc2c(c1)c1nc3ccccc3nc1n2Cc1ccc(OC(C)C)c(OC)c1`, which Potency is on record?
A: inconclusive: 10.4 µM [inhibitor, partial curve, poor fit]

Q: With `Cc1ccc(S(=O)(=O)N(C)C)cc1NC(=O)CN1c2cccc3cccc(c23)S1(=O)=O` as the compound, how does the Potency read?
A: inconclusive: 14.7 µM [inhibitor, partial curve, poor fit]

Q: For `COCC(=O)NC1CC2CCC(C1)N2C(=S)Nc1ccccc1C(=O)OC` (centres undefined), which “activity change, negative = inhibition” value is on record?
A: inactive: 35.8%

Q: With `O=C(Nc1ncccc1O)c1ccc(Cl)c(S(=O)(=O)N2CCCCC2)c1` as the compound, how does the Potency read?
A: inconclusive: 11.7 µM [inhibitor, single point]

Q: Which Potency does the source give for `O=C(CCSc1nc(-c2ccco2)cc(C(F)(F)F)n1)NCc1cccs1` here?
A: inconclusive: 2.33 µM [inhibitor, single point]

Q: For `O=C(CCN1C(=O)COc2ccccc21)NCCCN1CCN(c2ccccc2F)CC1`, which Potency is on record?
A: active: 2.62 µM

Q: Which Potency does the source give for `CCOc1ccc(N2C(=O)/C(=C/c3ccco3)N(C)C2=S)cc1` here?
A: active: 2.08 µM

Q: For `CC(C)CNC(=O)/C=C/c1cccs1`, which Potency is on record?
A: inconclusive: 10.4 µM [inhibitor, partial curve, poor fit]

Q: For `O=C(Nc1cc(S(=O)(=O)N2CCOCC2)ccc1N1CCCC1)c1ccc(Cl)cc1`, which Potency is on record?
A: inconclusive: 6.57 µM [inhibitor, partial curve, poor fit]

Q: For `CCCCCCC(=O)Nc1nc(C)c(-c2csc(Nc3cc(Cl)ccc3C)n2)s1`, which Potency is on record?
A: inconclusive: 0.131 µM [inhibitor, partial curve, poor fit]

Q: Which “activity change, negative = inhibition” value does the source give for `Cc1ccc2cc(C3CC(c4ccco4)=NN3S(C)(=O)=O)c(Cl)nc2c1` (centres undefined) here?
A: inactive: 42.1%

Q: With `CCCn1c(N2CCN(C)CC2)nc2c1c(=O)[nH]c(=O)n2C` as the compound, how does the “activity change, negative = inhibition” value read?
A: inactive: -11.5%

Q: With `O=S(=O)(c1ccc(F)cc1)N1CCN(C(=S)NC2CCCC2)CC1` as the compound, how does the Potency read?
A: inconclusive: 18.5 µM [inhibitor, single point]

Q: For `CCCCCN(C(=O)CN1CCC(Cc2ccccc2)CC1)c1c(N)n(CCCC)c(=O)[nH]c1=O`, which “activity change, negative = inhibition” value is on record?
A: inactive: 0%

Q: With `CCCCN1CC(=O)N2[C@H]3c4cc(OC)ccc4OC[C@@H]3[C@H](C(=O)OCC)[C@]2(C)C1=O` as the compound, how does the Potency read?
A: inconclusive: 16.5 µM [inhibitor, single point]

Q: Which Potency does the source give for `CC(=O)O[C@H]1C(=O)[C@@]2(C)[C@H]([C@H](OC(=O)c3ccccc3)[C@]3(O)C[C@H](OC(=O)[C@H](O)[C@@H](NC(=O)c4ccccc4)c4ccccc4)C(C)=C1C3(C)C)[C@]1(OC(C)=O)CO[C@@H]1C[C@@H]2O` here?
A: active: 135 nM and active: 58.6 nM

Q: Which “activity change, negative = inhibition” value does the source give for `Cc1ccc2nc(NNC(=O)c3ccc4c(c3)OCCO4)sc2c1` here?
A: inactive: -0.151%

Q: With `COc1ccc(C)cc1N(C(=O)COc1ccccc1)c1nc2ccccc2s1` as the compound, how does the Potency read?
A: inconclusive: 16.5 µM [inhibitor, single point]

Q: Which “activity change, negative = inhibition” value does the source give for `CCNS(=O)(=O)c1ccc(CCC(=O)NCc2ccncc2)cc1` here?
A: inactive: -7.3%

Q: With `Cc1cccc(NC(=O)C2NC(=O)CC2c2ccccc2)c1C` (centres undefined) as the compound, how does the “activity change, negative = inhibition” value read?
A: inactive: 113%

Q: For `CC1=NN(c2ccccc2)C(=O)/C1=C\C=C\c1ccccc1`, which Potency is on record?
A: active: 11.7 µM

Q: Which Potency does the source give for `Cc1ccc(/C=N/NC(=S)N2CCOCC2)cc1` here?
A: inconclusive: 10.4 µM [inhibitor, single point]

Q: For `CN1C(C(=O)NCc2cccc(C(F)(F)F)c2)CC2Cn3c(nc4cc(Cl)c(Cl)cc43)C21` (centres undefined), which Potency is on record?
A: inconclusive: 9.28 µM [inhibitor, single point]

Q: With `COc1cccc(Nc2nc(N)nc(CCl)n2)c1` as the compound, how does the Potency read?
A: inconclusive: 6.57 µM [inhibitor, partial curve]

Q: Which activity change, negative = inhibition does the source give for `O=C(Nc1cccc(C(F)(F)F)c1)C1CCCN(c2ncccn2)C1` (centres undefined) here?
A: inactive: 17.5% [at 5.75 µM]

Q: Which “activity change, negative = inhibition” value does the source give for `O=C(/C=C/c1ccc(Cl)cc1)NCc1cccs1` here?
A: inactive: 12.7%

Q: With `CC1CCN(C(=O)CNC(=O)c2cccc(OC(F)F)c2)CC1` as the compound, how does the “activity change, negative = inhibition” value read?
A: inactive: 13.5%

Q: With `O=C(CCCN1C(=O)c2ccccc2C1=O)Nc1c2c(nc3c1CCC3)CCC2` as the compound, how does the Potency read?
A: active: 0.465 µM

Q: With `COC(=O)C1=CN(Cc2ccc(F)cc2)C=C(C(=O)OC)C1c1ccc(O)c(OC)c1` as the compound, how does the Potency read?
A: inconclusive: 11.7 µM [inhibitor, single point]

Q: With `C=CCn1c(SCC(=O)Nc2ccc(C)cc2C)nnc1-c1cccnc1` as the compound, how does the Potency read?
A: inconclusive: 0.0329 µM [inhibitor, full curve, poor fit]

Q: Which “activity change, negative = inhibition” value does the source give for `Cc1ccc(/C=C/c2nnc(-c3ccccc3)o2)cc1` here?
A: inactive: 43.9%

Q: For `CCc1ccc(C2C(C#N)=C(N)Oc3cc(N)ccc32)cc1` (centres undefined), which Potency is on record?
A: inconclusive: 18.5 µM [inhibitor, single point]

Q: For `CC(C)(C)N(Cc1ccccc1)C(=O)COC(=O)C1CCN(c2ccc(C(F)(F)F)cn2)CC1`, which Potency is on record?
A: inconclusive: 18.5 µM [inhibitor, partial curve, poor fit]

Q: With `CC(=O)Nc1ccc(Nc2cc(C(C)C)nc3c(-c4ccccc4)c(C)nn23)cc1` as the compound, how does the Potency read?
A: active: 13.1 µM

Q: Which Potency does the source give for `COc1cccc(NC(=O)C2CCC(CNS(=O)(=O)c3cccc4cccnc34)CC2)c1` (centres undefined) here?
A: inconclusive: 18.5 µM [inhibitor, single point]

Q: With `CC(=O)Nc1ccc(S(=O)(=O)N(C)CC(=O)OCC(=O)c2cc(C)n(-c3ccc4c(c3)OCO4)c2C)cc1` as the compound, how does the “activity change, negative = inhibition” value read?
A: inactive: 6.6%

Q: For `COc1ccccc1OCCC(=O)Nc1cccc(S(=O)(=O)N2CCOCC2)c1`, which Potency is on record?
A: inconclusive: 18.5 µM [inhibitor, single point]

Q: Which “activity change, negative = inhibition” value does the source give for `COc1ccc2nc(C)[nH]c(=O)c2c1` here?
A: inactive: 0%

Q: With `Cc1ccsc1C(=O)N1CCCC(C(=O)c2cc(F)ccc2F)C1` (centres undefined) as the compound, how does the Potency read?
A: inconclusive: 4.15 µM [inhibitor, single point]

Q: For `COc1cc(/C=N/n2cc(-c3ccccc3)[nH]c2=S)cc(OC)c1O`, which Potency is on record?
A: inconclusive: 13.1 µM [inhibitor, partial curve, poor fit]

Q: Which Potency does the source give for `COc1cccc(OC)c1C(=O)Nc1cc(C)nn1-c1nc2ccccc2[nH]1` here?
A: active: 7.38 µM

Q: Which Potency does the source give for `COC(=O)C1=C(O)/C(=C\c2ccc(OCC(=O)Nc3ccc(OC)cc3)cc2)N=C1C` here?
A: inconclusive: 11.7 µM [inhibitor, single point]

Q: Which Potency does the source give for `O=C1C=C(c2ccc(Cl)nc2)C[C@@H](c2ccc3c(c2)OCO3)C1` here?
A: inconclusive: 0.0586 µM [inhibitor, full curve, poor fit]

Q: With `CN(C)C(=O)c1ccc(NC(=O)c2ccc(-c3ccc(Cl)cc3)o2)cc1` as the compound, how does the Potency read?
A: inconclusive: 14.7 µM [inhibitor, single point]

Q: For `Cc1ccc2c(C(=O)CNc3nncs3)c(C)[nH]c2c1`, which Potency is on record?
A: inconclusive: 18.5 µM [inhibitor, single point]

From PubChem BioAssay AID504834 (National Center for Advancing Translational Sciences (NCATS), 2011)
